These results are taken from paper doi:10.1101/2020.07.27.222323.

Amino acid sequences for entries named in this document (tags omitted). A change or cut given only in a name is not applied to a line headed by its entry.
UniProt O95452, whole entry: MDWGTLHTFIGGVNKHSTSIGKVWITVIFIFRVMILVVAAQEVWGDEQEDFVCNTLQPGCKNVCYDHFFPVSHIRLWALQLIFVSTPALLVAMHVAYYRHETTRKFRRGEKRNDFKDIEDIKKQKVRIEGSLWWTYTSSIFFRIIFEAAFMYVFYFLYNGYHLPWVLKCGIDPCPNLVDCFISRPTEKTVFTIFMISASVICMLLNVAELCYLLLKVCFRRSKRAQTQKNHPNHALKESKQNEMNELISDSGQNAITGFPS

These are yes or no findings as the source states them, for the method shown. Binding seen in cells or lysates may run through a third protein. Some binding calls cover weakened binding; strength is not graded here.

In the assay the target is Connexin 30 (Cx30, GJB6), Cx30-msfGFP (UniProt O95452). Put plainly: co-IP.

B1: TMEM43-p.R372X (domain or fragment, UniProt Q9BTV4 1-371)
chain: MAANYSSTSTRREHVKVKTSSQPGFLERLSETSGGMFVGLMAFLLSFYLIFTNEGRALKTATSLAEGLSLVVSPDSIHSVAPENEGRLVHIIGALRTSKLLSDPNYGVHLPAVKLRRHVEMYQWVETEESREYTEDGQVKKETRYSYNTEWRSEIINSKNFDREIGHKNPSAMAVESFMATAPFVQIGRFFLSSGLIDKVDNFKSLSLSKLEDPHVDIIRRGDFFYHSENPKYPEVGDLRVSFSYAGLSGDDPDLGPAHVVTVIARQRGDQLVPFSTKSGDTLLLLHHGDFSAEEVFHRELRSNSMKTWGLRAAGWMAMFMGLNLMTRILYTLVDWFPVFRDLVNIGLKAFAFCVATSLTLLTVAAGWLFY
B1: the binding entry is on record as “binds”.

B2: Human transmembrane protein 43 (TMEM43), wild type (protein, UniProt Q9BTV4 1-400)
chain: MAANYSSTSTRREHVKVKTSSQPGFLERLSETSGGMFVGLMAFLLSFYLIFTNEGRALKTATSLAEGLSLVVSPDSIHSVAPENEGRLVHIIGALRTSKLLSDPNYGVHLPAVKLRRHVEMYQWVETEESREYTEDGQVKKETRYSYNTEWRSEIINSKNFDREIGHKNPSAMAVESFMATAPFVQIGRFFLSSGLIDKVDNFKSLSLSKLEDPHVDIIRRGDFFYHSENPKYPEVGDLRVSFSYAGLSGDDPDLGPAHVVTVIARQRGDQLVPFSTKSGDTLLLLHHGDFSAEEVFHRELRSNSMKTWGLRAAGWMAMFMGLNLMTRILYTLVDWFPVFRDLVNIGLKAFAFCVATSLTLLTVAAGWLFYRPLWALLIAGLALVPILVARTRVPAKKLE
Consider B2, for which the binding entry is given as “binds”.
